Record: PubChem BioAssay AID1259405 (NCATS, 2018)

- Test: 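Knock-downs that lift recombinant protein yield in hamster ovary cells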 (primary screen)
- System: Chinese hamster CHO-K1 ovary cells with stable secreted eGFP expression
- Knock-down reagent: single siRNA against mouse genes, 0.8 pmol siRNA per well (2 µl of 400 nM stock)
- Time to read-out: 3 days
- Measurement: 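Percent of the per-plate non-targeting control median for intracellular GFP per well by laser scanning cytometry and for cell viability by ATP luminescence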
- Scale: GFP, % of control: higher = more GFP per well, higher productivity; viability (ATP), % of control: higher = more viable cells (more ATP)
- Hit rule: 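Called active when intracellular GFP, relative to negative control, is at or above 120%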
This is one part, drawn at random, of about 50,000 reagents tested. About 4,000 of them (8%) were called active. 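Mouse siRNA library applied to hamster cells; one well for each siRNA.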 Reagents against one gene are numbered here.

Target gene	reagent	GFP, % of control	viability (ATP), % of control	Outcome
Ptrh2	1	86.7	83.9	inactive
Ptrh2	2	81.1	90.9	inactive
Ptrh2	3	54.9	59.9	inactive
Cd59a	1	54.7	51.1	inactive
Cd59a	2	43.5	81	inactive
Cd59a	3	60.6	53.4	inactive
Myog	1	88.4	86.5	inactive
Myog	2	94.1	60.2	inactive
Myog	3	75.4	126	inactive
Ncstn	1	25.2	42.2	inactive
Ncstn	2	73	97	inactive
Ncstn	3	107	63.7	inactive
Stk31	1	104	79.4	inactive
Stk31	2	76	133	inactive
Pdgfrl	1	77.8	73.1	inactive
Atat1	1	73.8	56.8	inactive
Atat1	2	73.3	38.6	inactive
Atat1	3	89.4	81	inactive
Mvb12a	1	108	136	inactive
Mvb12a	2	58.3	74.1	inactive
Mvb12a	3	63.5	43.5	inactive
Fancg	1	120	111	active
Fancg	2	146	110	active
Fancg	3	87.7	67.3	inactive
Echs1	1	92.6	62.7	inactive
Echs1	2	106	68.1	inactive
Echs1	3	88.3	60.4	inactive
Fgf23	1	73.2	77.4	inactive
Fgf23	2	102	84.4	inactive
Fgf23	3	54.9	63.1	inactive
Astl	1	105	72.1	inactive
Astl	2	69.6	65.4	inactive
Astl	3	72.1	87.6	inactive
Ccl11	1	91.8	111	inactive
Ccl11	2	80.8	106	inactive
Cxcl12	1	77.8	99.3	inactive
Cxcl12	2	33.2	48.8	inactive
Cxcl12	3	118	100	inactive
Anxa5	1	85.8	130	inactive
Anxa5	2	90	75.2	inactive
Anxa5	3	79.6	70.5	inactive
Myoz1	1	67.3	37.5	inactive
Myoz1	2	111	50.3	inactive
Myoz1	3	72.2	54.4	inactive
Psmg1	1	102	88.1	inactive
Psmg1	2	86.9	34.5	inactive
Psmg1	3	247	79.8	active
Tcp11x2	1	89.8	86.7	inactive
Tcp11x2	2	81.9	82.1	inactive
Tcp11x2	3	105	97.2	inactive
Mtf1	1	60.6	64.1	inactive
Mtf1	2	65	45.9	inactive
Mtf1	3	76.9	120	inactive
Atxn1	1	92.5	117	inactive
Atxn1	2	69.6	83.9	inactive
Atxn1	3	111	41.3	inactive
H2-DMa	1	73.5	77.6	inactive
H2-DMa	2	63	63.2	inactive

Hits (from the list above):
Target gene	reagent	GFP, % of control	viability (ATP), % of control	Outcome
Fancg	1	120	111	active
Fancg	2	146	110	active
Psmg1	3	247	79.8	active
